Assay results as given in US20030078221.
For some of these results: Construct, isoform or probe ends are uncertain for at least one entry.

Chains of the proteins cited; added tags and fusions are not shown. Chains listed by the source or under a name are the forms on record and can include a tag or linker.
Complement C3 (Homo sapiens), one chain, as listed by the source, chain 1 of 2: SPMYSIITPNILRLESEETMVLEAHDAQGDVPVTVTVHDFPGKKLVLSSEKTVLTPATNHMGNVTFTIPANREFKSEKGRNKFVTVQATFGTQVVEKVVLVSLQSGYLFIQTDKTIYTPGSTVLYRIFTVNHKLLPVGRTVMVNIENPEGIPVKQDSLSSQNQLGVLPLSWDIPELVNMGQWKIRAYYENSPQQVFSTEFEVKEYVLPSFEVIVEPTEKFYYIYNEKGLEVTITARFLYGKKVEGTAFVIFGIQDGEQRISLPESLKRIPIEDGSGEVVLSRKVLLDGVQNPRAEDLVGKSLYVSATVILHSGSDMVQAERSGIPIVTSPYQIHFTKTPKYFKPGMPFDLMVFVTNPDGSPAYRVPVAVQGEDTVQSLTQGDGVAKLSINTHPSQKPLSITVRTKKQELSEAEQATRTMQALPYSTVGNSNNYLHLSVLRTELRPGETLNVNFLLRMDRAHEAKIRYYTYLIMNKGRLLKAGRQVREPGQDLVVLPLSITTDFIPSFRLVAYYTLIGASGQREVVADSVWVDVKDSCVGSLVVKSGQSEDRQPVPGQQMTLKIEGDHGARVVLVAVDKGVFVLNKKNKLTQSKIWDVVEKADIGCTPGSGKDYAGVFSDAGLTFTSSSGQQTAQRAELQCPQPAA
Complement C5 (Homo sapiens), one chain, as listed by the source, chain 2 of 2: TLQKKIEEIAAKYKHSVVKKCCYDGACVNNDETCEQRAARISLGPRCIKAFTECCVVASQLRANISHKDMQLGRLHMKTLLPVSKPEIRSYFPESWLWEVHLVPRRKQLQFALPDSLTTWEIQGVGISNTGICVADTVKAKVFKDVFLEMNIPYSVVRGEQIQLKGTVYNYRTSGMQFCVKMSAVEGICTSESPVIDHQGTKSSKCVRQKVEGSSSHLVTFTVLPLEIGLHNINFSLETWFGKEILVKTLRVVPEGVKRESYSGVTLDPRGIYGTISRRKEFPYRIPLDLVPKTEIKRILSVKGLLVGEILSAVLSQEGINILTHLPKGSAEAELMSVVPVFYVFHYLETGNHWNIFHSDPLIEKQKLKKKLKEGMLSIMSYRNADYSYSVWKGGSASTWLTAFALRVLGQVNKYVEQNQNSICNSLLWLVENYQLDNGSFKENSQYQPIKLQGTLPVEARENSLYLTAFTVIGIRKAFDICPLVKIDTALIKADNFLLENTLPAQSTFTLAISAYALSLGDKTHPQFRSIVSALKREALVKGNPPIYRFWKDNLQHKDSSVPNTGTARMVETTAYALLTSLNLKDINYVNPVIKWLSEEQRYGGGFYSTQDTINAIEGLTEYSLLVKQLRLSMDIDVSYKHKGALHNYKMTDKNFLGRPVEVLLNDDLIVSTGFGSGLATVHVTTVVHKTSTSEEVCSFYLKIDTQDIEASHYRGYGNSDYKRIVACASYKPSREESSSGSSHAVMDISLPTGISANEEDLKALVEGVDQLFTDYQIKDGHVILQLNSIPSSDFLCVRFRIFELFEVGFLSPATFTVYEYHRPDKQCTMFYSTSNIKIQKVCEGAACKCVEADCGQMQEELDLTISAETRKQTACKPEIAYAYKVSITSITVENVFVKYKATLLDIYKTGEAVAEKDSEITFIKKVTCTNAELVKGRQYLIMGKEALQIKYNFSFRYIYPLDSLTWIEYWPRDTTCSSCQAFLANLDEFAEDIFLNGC

Tested on: Complement C3 (Homo sapiens)
Experiment: SELEX
Conditions: 2'-F pyrimidines; selected ligand, no individual value; purified native protein; protein details: Quidel

Row | Sequence | selection result
1 | GGGAGGACGAUGCGGGUGGCGAUUCCAAGUCUUCCGUGAACAUGGUCAGACGACUCGCCCG [C3-23C] | selected
2 | GGGAGGACGAUGCGGAUGACGAUUCGGCAUUCACUAACUUCUACUCAGACGACUCGCCCGA [C3C 109] | selected
3 | GGGAGGACGAUGCGGAACUCAAUGGGCCGACUUUUCCGUGGUCCUCAGACGACUGCCCGA [27C3B143] | selected
4 | GGGAGGACGAUGCGGGCGUUGGCGAUUCCUAAGUGUCGUUCUCGUCAGACGACUCGCCCGA [C3c 35] | selected
5 | GGGAGGACGAUGCGGAUGACGAUUCGGCAUUCACUAACUUCUCGUCAGACGACUCGCCCGA [C3c 3] | selected
6 | GGGAGGACGAUGCGGCGUCACGAGCUUUAUGCGUUCUCUGUGGUCAGACGACUCGCCCGA [C3B 108] | selected
7 | GGGAGGACGAUGCGGAACUCAAUGGGCCGACUUUUUCCGUGUCCUCAGACGACUCGCCCG [C3C 186] | selected
8 | GGGAGGACGAUGCGGUGGCGAUUCCAAGUCUUCCGUGAACAUGGUCAGACGACUCGCCCGA [188] | selected
9 | GGGAGGACGAUGCGGAACUCAAUGGGCCGACUUUUCCGUGGUCCUCAGACGACUCGCCCGA [C3c 32] | selected
10 | GGGAGGACGAUGCGGAUAACGAUUCGGCAUUCACUAACUUCUCGUCAGACGACUCGCCCGA [C3B 25] | selected
11 | GGGAGGACGAUGCGGCUUAAAGUUGUUUAUGAUCAUUCCGUACGUCAGACGACUCGCCCGA [C3c 77] | selected
12 | GGGAGGACGAUGCGGCGUCUCGAGCUCUAUGCGUCCUCUGUGGUCAGACGACUCGCCCGA [C3B 41] | selected
13 | GGGAGGACGAUGCGGGCGUCUCGAGCUCUAUGCGUUCUCUGUGGUCAGACGACUCGCCCGA [C3B 138] | selected
14 | GGGAGGACGAUGCGGAACUCAAUGGGCCUACUUUUUCCGUGGUCCUCAGACGACUCGCCCGA [C3c 10] | selected
15 | GGGAGGACGAUGCGGACUCGGCAUUCACUAACUUUUGCGCUCGUCAGACGACUCGCCCGA [C3a 29c] | selected
16 | GGGAGGACGAUGCGGAUCUGAGCCUAAAGUCAUUGUGAUCAUCCUCAGACGACUCGCCCGA [C3-A 18c] | selected
17 | GGGAGGACGAUGCGGUGGCGAUUCCAAGUCUUCCGUGAACAUCAGACGACUCGCCCGA [C3B 23] | selected
18 | GGGAGGACGAUGCGGACGCAGGGGAUGCUCACUUUGACUUUAGGCCAGACGACUCGCCCG [30C3B149] | selected
19 | GGGAGGACGAUGCGGGCGUUGGCGAUUGGUAAGUGUCGUUCUCGUCAGACGACUCGCCCGA [C3B 102] | selected
20 | GGGAGGACGAUGCGGGCGUCUCGAGCUUUAUGCGUUCUCUGUGGUCAGACGACUCGCCCGA [c3a 9c] | selected
21 | GGGAGGACGAUGCGGAACUCAAUGGGCCUACUUUUCCGUGGUCCUCAGACGACUCGCCCGA [C3C 16] | selected
22 | GGGAGGACGAUGCGGAACUCAAUGGGCCGACUUUCCGUGGUCCUCAGACGACUCGCCCGA [C3C 162] | selected
23 | GGGAGGACGAUGCGGAUGACGAUUCGGCAUUCACUAACUUCUCAUCAGACGACUCGCCCGA [C3C 155] | selected

Tested on: Complement C5 (Homo sapiens)
Experiment: inhibition of the protein
Conditions: 2'-F pyrimidines; 2'-OMe G at position 20; hemolysis Ki lower with 2'-OMe substitution; purified native protein; protein details: Quidel; variant of B2010 (YL-13t); dose not given here

Row | Sequence | functional effect of the aptamer
24 | CGCCGCGGUCUCAGGCGCUGAGUCUGAGUUUACCUGCG [B2070] | active

Same assay, conditions: 2'-F pyrimidines; 2'-OMe at positions 2,7,8,13,14,15,20,21,22,26,27,28,36,38; hemolysis Ki lower with 2'-OMe; Kd marginally better (not shown); purified native protein; protein details: Quidel; variant of B2010 (YL-13t); dose not given here

Row | Sequence | functional effect of the aptamer
25 | CGCCGCGGUCUCAGGCGCUGAGUCUGAGUUUACCUGCG [M6040] | active
